Laboratory results as given in PubChem BioAssay (NCATS).
Inconclusive results, whose numbers are uncertain, are shown with a selection of clear calls. A potency beside an inconclusive call is a rough fit, not a confirmed value. Active and inactive are the calls of the source. The call rests on the fitted dose curve; in most records, active means well fitted curve in the direction sought with a large enough effect; inconclusive means small, poorly fitted or top-dose-only effect, or another doubt; inactive means no such curve, though single readings can be large; an effect the other way counts as inactive or inconclusive.

How the values were obtained:
[1] = Quantitative High-Throughput drug screen in 47 multiple myeloma cell lines against the NCATS MIPE library collection: KMS12PE_JCRB cell viability assay (AID 1918972); further: nearly all actives have a fitted effect of over 30% in size
Outline: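 CellTiter-Glo luminescence (ATP) after 48 h compound exposure, 37C/5% CO2; 500 cells/well; MIPE 4.0 approved/investigational drugs pinned in; DMSO = 100%, media only = 0% viability.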

[2] = Quantitative High-Throughput drug screen in 47 multiple myeloma cell lines against the NCATS MIPE library collection: KMS20_JCRB cell viability assay (AID 1918973); conditions: CellTiter-Glo ATP, 48 h; viability (% of DMSO): at 45.8 µM (top of the series); further: nearly all actives have a fitted effect of over 45% in size
Outline: (§1)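 Myeloma cell lines, 500 cells per well, exposed to MIPE 4.0 library compounds for 48 h at 37C, 5% CO2. Viability from ATP by CellTiter-Glo luminescence; normalised to DMSO (100%) and media-only (0%) wells.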

[3] = Quantitative High-Throughput drug screen in 47 multiple myeloma cell lines against the NCATS MIPE library collection: KMS21BM_JCRB cell viability assay (AID 1918974); conditions: ATP luminescence, 48 h; viability: at 45.8 µM (top of the series) unless noted
Outline: as §1

[4] = Quantitative High-Throughput drug screen in 47 multiple myeloma cell lines against the NCATS MIPE library collection: KMS26_JCRB cell viability assay (AID 1918975); conditions: KMS26 myeloma cells viability, CellTiter-Glo ATP, 48 h; viability (% of DMSO): at 45.8 µM (top of the series); further: nearly all actives have a fitted effect of over 45% in size
Outline: (§2)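 Steps: seed 500 cells per well; pin-transfer MIPE 4.0 library; incubate 48 h at 37C, 5% CO2, humidified; add CellTiter-Glo, 5 min room temperature; read luminescence.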

[5] = Quantitative High-Throughput drug screen in 47 multiple myeloma cell lines against the NCATS MIPE library collection: MMM1_PLB cell viability assay (AID 1918976); further: nearly all actives have a fitted effect of over 35% in size
Outline: (§3)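 500 cells/well; MIPE 4.0 drugs pin-transferred; 48 h, 37C, 5% CO2. CellTiter-Glo, 5 min RT, luminescence. Controls: DMSO 100%, media 0%.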

[6] = Quantitative High-Throughput drug screen in 47 multiple myeloma cell lines against the NCATS MIPE library collection: KMS12BM_JCRB cell viability assay (AID 1918971); conditions: KMS12BM myeloma viability, CellTiter-Glo ATP, 48 h; series mostly up to 45.8 µM; further: nearly all actives have a fitted effect of over 35% in size
Outline: as §2

[7] = Quantitative High-Throughput drug screen in 47 multiple myeloma cell lines against the NCATS MIPE library collection: MOLP8_DSMZ cell viability assay (AID 1918977); conditions: MOLP8 myeloma viability, CellTiter-Glo ATP luminescence, 48 h; viability (% of control): at 45.8 µM (top of the series); further: nearly all actives have a fitted effect of over 45% in size
Outline: as §3

[8] = Quantitative High-Throughput drug screen in 47 multiple myeloma cell lines against the NCATS MIPE library collection: OCIMY1_PLB cell viability assay (AID 1918979); further: nearly all actives have a fitted effect of over 35% in size
Outline: as §3

[9] = Quantitative High-Throughput drug screen in 47 multiple myeloma cell lines against the NCATS MIPE library collection: MM1S_ATCC cell viability assay (AID 1918980); conditions: MM1S myeloma viability, CellTiter-Glo ATP luminescence, 48 h; viability (% of control): at 45.8 µM (top of the series); further: nearly all actives have a fitted effect of over 45% in size
Outline: as §3

[10] = Quantitative High-Throughput drug screen in 47 multiple myeloma cell lines against the NCATS MIPE library collection: NCIH929_DSMZ cell viability assay (AID 1918978); conditions: NCI-H929 myeloma viability, CellTiter-Glo ATP, 48 h; series mostly up to 45.8 µM; further: nearly all actives have a fitted effect of over 35% in size
Outline: as §3
Potency means the concentration at half of the fitted maximal effect.

Compound | Potency [1] | Potency [2] | Potency [3] | Potency [4] | Potency [5] | Potency [6] | Potency [7] | Potency [8] | Potency [9] | Potency [10]
O=c1c(O)c(-c2ccc(O)c(O)c2)oc2cc(O)ccc12 | inconclusive: 11.8 µM [cytotoxic, single point] | inconclusive: 33.2 µM [cytotoxic, partial curve, poor fit] | inconclusive: 37.2 µM [rising, partial curve] | inconclusive: 37.2 µM [cytotoxic, single point] | active: 26.4 µM | – | – | – | – | –
N[C@@H](Cc1c[nH]c2ccc(O)cc12)C(=O)O | – | inconclusive: 0.0019 µM [cytotoxic, full curve, poor fit] | – | – | – | inconclusive: 1.05 µM [cytotoxic, full curve, poor fit] | inconclusive: 0.662 µM [cytotoxic, full curve, poor fit] | inactive | inconclusive: 16.6 µM [cytotoxic, partial curve, poor fit] | –
O=c1[nH]cc(F)c(=O)[nH]1 | – | inconclusive: 0.0012 µM [cytotoxic, full curve, poor fit] | inconclusive: 10.5 µM [cytotoxic, partial curve, poor fit] | – | – | inconclusive: 1.48 µM [cytotoxic, full curve, poor fit] | inconclusive: 6.62 µM [cytotoxic, full curve, poor fit] | inconclusive: 18.7 µM [cytotoxic, single point] | – | inconclusive: 23.5 µM [cytotoxic, partial curve, poor fit]
O=c1c(-c2ccc(O)cc2)coc2cc(OC3O[C@H](CO)[C@H](O)[C@H](O)[C@H]3O)cc(O)c12 (stereo partly specified) | inconclusive: 0.0047 µM [cytotoxic, full curve, poor fit] | inconclusive: 8.33 µM [cytotoxic, partial curve, poor fit] | inconclusive: 13.2 µM [cytotoxic, partial curve, poor fit] | inconclusive: 14.8 µM [cytotoxic, partial curve, poor fit] | active: 18.7 µM | – | inconclusive: 23.5 µM [cytotoxic, partial curve] | – | – | –
C=CC(=O)Nc1cc2c(Nc3ccc(F)c(Cl)c3)ncnc2cc1C#CC(C)(C)N1CCN(C)CC1 | – | – | active: 0.332 µM | active: 1.66 µM | active: 5.26 µM | active: 0.332 µM | – | active: 4.69 µM | – | –
CO[C@H]1C[C@@H]2CC[C@@H](C)[C@@](O)(O2)C(=O)C(=O)N2CCCC[C@@H]2C(=O)O[C@H]([C@H](C)C[C@@H]2CC[C@H](OCCO)[C@H](OC)C2)CC(=O)[C@H](C)C=C(C)[C@@H](O)[C@@H](OC)C(=O)[C@H](C)C[C@H](C)C=CC=CC=C1C | inconclusive: 16.6 µM [cytotoxic, partial curve] | active: 3.72 µM | active: 7.43 µM | inconclusive: 16.6 µM [cytotoxic, partial curve] | inconclusive: 5.26 µM [cytotoxic, partial curve] | – | inconclusive: 7.43 µM [cytotoxic, partial curve] | inconclusive: 18.7 µM [cytotoxic, partial curve] | inconclusive: 5.9 µM [cytotoxic, partial curve] | inconclusive: 0.132 µM [cytotoxic, full curve]
COc1cc2c(Oc3ccc(NC(=O)C4(C(=O)Nc5ccc(F)cc5)CC4)cc3F)ccnc2cc1OCCCN1CCOCC1 | – | active: 1.87 µM | inconclusive: 9.35 µM [cytotoxic, partial curve, poor fit] | – | – | inconclusive: 18.7 µM [cytotoxic, partial curve, poor fit] | inconclusive: 14.8 µM [cytotoxic, partial curve] | – | active: 16.6 µM | active: 2.96 µM
O=C(CCCN1CCC(O)(c2ccc(Cl)cc2)CC1)c1ccc(F)cc1 | inconclusive: 33.2 µM [cytotoxic, single point] | active: 13.2 µM | inconclusive: 14.8 µM [cytotoxic, partial curve, poor fit] | inconclusive: 14.8 µM [cytotoxic, partial curve, poor fit] | inconclusive: 23.5 µM [cytotoxic, single point] | – | inactive | – | – | inconclusive: 20.9 µM [cytotoxic, partial curve]
Cc1cc(C(C)(C)C)c(O)c(C)c1CC1=NCCN1 | – | inconclusive: 0.0235 µM [cytotoxic, full curve, poor fit] | – | inconclusive: 0.935 µM [cytotoxic, full curve, poor fit] | – | inactive | inactive | – | inconclusive: 0.003 µM [rising, full curve, poor fit] | inactive
CC1=C(C(=O)O)N2C(=O)[C@@H](NC(=O)[C@H](N)C3=CCC=CC3)[C@H]2SC1 | – | inconclusive: 37.2 µM [rising, single point] | – | – | inconclusive: 0.0053 µM [rising, full curve, poor fit] | inactive | inactive | – | inconclusive: 0.0059 µM [rising, full curve, poor fit] | –
COc1cccc(-c2ccc(NC(=O)C3=C(C(=O)O)CCC3)c(F)c2)c1 | active: 2.96 µM | inconclusive: 23.5 µM [cytotoxic, partial curve, poor fit] | inconclusive: 37.2 µM [rising, partial curve] | inconclusive: 29.6 µM [cytotoxic, single point] | active: 20.9 µM | – | inconclusive: 18.7 µM [cytotoxic, partial curve, poor fit] | inactive | active: 3.72 µM | active: 20.9 µM
CNCC[C@H](Oc1cccc2ccccc12)c1cccs1 | inconclusive: 33.2 µM [cytotoxic, single point] | inconclusive: 1.87 µM [cytotoxic, full curve, poor fit] | inconclusive: 33.2 µM [cytotoxic, single point] | active: 7.43 µM | active: 29.6 µM | – | active: 18.7 µM | – | – | –
Cn1ccc2cc3c(cc21)CCN3C(=O)Nc1cccnc1 | – | inconclusive: 11.8 µM [cytotoxic, full curve, poor fit] | – | inconclusive: 6.62 µM [rising, partial curve, poor fit] | inconclusive: 0.0187 µM [rising, full curve] | inconclusive: 0.0209 µM [rising, full curve] | inconclusive: 13.2 µM [cytotoxic, partial curve, poor fit] | – | inconclusive: 33.2 µM [cytotoxic, single point] | inconclusive: 33.2 µM [cytotoxic, single point]
CCNC(=O)CCCC=CC[C@@H]1[C@H](C=CC(O)CCc2ccccc2)[C@@H](O)C[C@@H]1O (stereo partly specified) | inactive | inconclusive: 0.0012 µM [cytotoxic, full curve, poor fit] | inconclusive: 33.2 µM [rising, partial curve] | inconclusive: 1.48 µM [cytotoxic, full curve, poor fit] | inconclusive: 2.96 µM [cytotoxic, partial curve, poor fit] | – | inconclusive: 4.69 µM [cytotoxic, partial curve, poor fit] | – | – | –
O=C1Cc2cc(CCN3CCN(c4nsc5ccccc45)CC3)c(Cl)cc2N1 | inconclusive: 11.8 µM [cytotoxic, single point] | inconclusive: 37.2 µM [cytotoxic, single point] | inconclusive: 37.2 µM [rising, partial curve, poor fit] | inconclusive: 29.6 µM [cytotoxic, single point] | active: 23.5 µM | – | inconclusive: 37.2 µM [cytotoxic, single point] | – | inconclusive: 26.4 µM [cytotoxic, single point] | –
Oc1cc(O)cc(C=Cc2ccc(O)c(O)c2)c1 | – | – | inconclusive: 13.2 µM [cytotoxic, partial curve, poor fit] | – | – | inconclusive: 33.2 µM [cytotoxic, single point] | active: 18.7 µM | inconclusive: 26.4 µM [cytotoxic, single point] | – | –
CNC1CCCN(c2c(F)cc3c(=O)c(C(=O)O)cn(C4CC4)c3c2OC)C1 (stereo unspecified) | inconclusive: 0.296 µM [cytotoxic, full curve, poor fit] | inactive | inconclusive: 37.2 µM [rising, partial curve] | inconclusive: 2.64 µM [cytotoxic, full curve, poor fit] | inconclusive: 5.26 µM [cytotoxic, partial curve, poor fit] | – | inconclusive: 0.0012 µM [cytotoxic, full curve, poor fit] | – | – | –
O=c1cc(-c2ccc(O)cc2)oc2cc(O)cc(O)c12 | inconclusive: 0.296 µM [cytotoxic, full curve, poor fit] | inconclusive: 10.5 µM [cytotoxic, full curve, poor fit] | inconclusive: 37.2 µM [rising, partial curve, poor fit] | inconclusive: 26.4 µM [cytotoxic, partial curve, poor fit] | active: 18.7 µM | – | inconclusive: 13.2 µM [cytotoxic, partial curve, poor fit] | inconclusive: 23.5 µM [cytotoxic, single point] | – | –
CCCCCNC(=O)N1CCC(CN(Cc2ccc(Cl)cc2)Cc2ccc([N+](=O)[O-])s2)C1 (stereo unspecified) | active: 18.7 µM | inconclusive: 37.2 µM [cytotoxic, single point] | inconclusive: 0.0296 µM [cytotoxic, full curve, poor fit] | active: 23.5 µM | active: 20.9 µM | – | active: 18.7 µM | inconclusive: 33.2 µM [cytotoxic, single point] | inconclusive: 37.2 µM [cytotoxic, single point] | inconclusive: 26.4 µM [cytotoxic, single point]

2 compounds from above, showing only Potency [9] and Potency [3].
Compound	Potency [9]	Potency [3]
O=C(CCCN1CCC(O)(c2ccc(Cl)cc2)CC1)c1ccc(F)cc1	–	inconclusive: 14.8 µM [cytotoxic, partial curve, poor fit]
Cc1cc(C(C)(C)C)c(O)c(C)c1CC1=NCCN1	inconclusive: 0.003 µM [rising, full curve, poor fit]	–
